# Source: US7320879B2, “Method of determining site-specificity and kit therefor” (Biacore AB, priority 2002, dated 2008)
# Chains of the proteins cited; added tags and fusions are not shown. Residues count along the entry.
# UniProt P02768, 25-609: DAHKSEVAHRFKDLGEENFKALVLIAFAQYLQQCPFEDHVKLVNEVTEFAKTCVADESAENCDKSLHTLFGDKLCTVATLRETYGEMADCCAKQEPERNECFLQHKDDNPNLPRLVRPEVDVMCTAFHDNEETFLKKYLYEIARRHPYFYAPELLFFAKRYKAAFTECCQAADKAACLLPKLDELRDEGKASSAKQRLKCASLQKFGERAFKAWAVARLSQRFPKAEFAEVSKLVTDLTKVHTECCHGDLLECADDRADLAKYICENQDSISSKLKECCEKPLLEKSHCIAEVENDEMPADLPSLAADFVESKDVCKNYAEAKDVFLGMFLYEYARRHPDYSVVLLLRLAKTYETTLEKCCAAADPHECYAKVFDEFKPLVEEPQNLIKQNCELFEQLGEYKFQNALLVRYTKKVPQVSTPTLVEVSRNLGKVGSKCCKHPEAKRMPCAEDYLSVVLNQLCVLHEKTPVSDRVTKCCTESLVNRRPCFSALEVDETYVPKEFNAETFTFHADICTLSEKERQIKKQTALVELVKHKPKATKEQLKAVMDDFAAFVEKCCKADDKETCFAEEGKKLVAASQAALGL
# Tests used:
# HSA [1] = biological target: T1, HSA (Homo sapiens, UniProt P02768); assay: SPR (BIACORE S51) competition assay for HSA-binding site specificity, dissociation-phase response of mixtures; conditions: S1 constant 0.1 μM; reference 0-200 μM; d2 report point; FIG. 4
# T1 construct: purchased Sigma A-4327
# HSA [2] = biological target: T1, HSA; conditions: known site specificity of reference compounds (crystallography studies); cited from earlier work
compound,measurement,setting,value
COc1ccc2cc([C@H](C)C(=O)O)ccc2c1 [naproxen],effect of the reference compound on binding/dissociation phase of S1 on HSA,HSA [1],inhibits it to some degree
same,known HSA-binding site,HSA [2],site II
